From ChEMBL document CHEMBL3988442, “University of Dundee, Small-Polar-MMV Screening Library” (2021).

Mtb heat-shock: 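Assay on Mycobacterium tuberculosis, filed only as a heat shock assay from Cornell; the read-out is not stated. The concentration is filed as 10 mM, unlikely as a test dose, so the dose is not known. Higher reads as stronger inhibition (inferred: compounds with an IC50 in retests scored well above the rest). Size under these conditions: about 69,000 compounds, about 930 of them at 50% or above in at least one test.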
Mtb growth Cornell: 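Whole-cell assay for inhibitors of Mycobacterium tuberculosis growth, labelled Cornell in the record; the read-out is not stated. The concentration is filed as 10 mM, unlikely as a test dose, so the dose is not known. The record gives no direction; compounds strong in two other growth screens of this library score well above the rest, so higher reads as stronger inhibition. Size under these conditions: about 53,000 compounds, about 900 of them at 50% or above in at least one test.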

Results are given as percent effect. The record does not define 0% and 100%; most values in the screen are far below 50% and negative numbers occur (in some assays of this library far below -100). The compounds are a random part of those screened. A dash means the value is not listed here; it may have been measured.

* Cc1cc(CN2CCN(c3ccc4nncn4n3)C(C)C2)on1 (stereo not given) | Mtb heat-shock: -36.35%; Mtb growth Cornell: -24.25%
* Cc1cc(C)n(CC2CCCCN2C(=O)CCc2ccncc2)n1 (stereo not given) | Mtb heat-shock: 5.19%
* [H][C@@]12CN(c3ccc(C)nn3)C[C@]1([H])OCCN2Cc1c(C)noc1C | Mtb heat-shock: 21.78%; Mtb growth Cornell: 2.66%
* CSC(C)(C)CNC(=O)NC1CCC1 | Mtb heat-shock: -24.77%; Mtb growth Cornell: -15.91%
* Cc1ncc2c(c1-c1noc(-c3cscn3)n1)CCNC2 | Mtb heat-shock: -3.072%; Mtb growth Cornell: 12.03%
* CC(C)C1CN(C(=O)c2ccc3nccnc3c2)CCS1 (stereo not given) | Mtb heat-shock: -13.67%
* Cc1noc(C(C)N2CCN(CCn3ccccc3=O)CC2)n1 (stereo not given) | Mtb heat-shock: -29.61%
* O=C1CC(c2cccc(Cl)c2)c2snc(C(=O)O)c2N1 (stereo not given) | Mtb heat-shock: -7.379%
* CCn1nc(C)cc1C(=O)N1CCOc2cc(C)ccc21 | Mtb heat-shock: 2.439%
* CCc1nc(CN2CCCN(C(=O)Cc3cccs3)CC2)cs1 | Mtb heat-shock: -10.87%
* O=C(c1ccc[nH]1)N1CCCC2(CCN(c3ccsc3)C2=O)C1 (stereo not given) | Mtb heat-shock: 20.56%; Mtb growth Cornell: -4.568%
* Cn1ccnc1CN1CCC(CNS(=O)(=O)c2cccnc2)C1 (stereo not given) | Mtb heat-shock: -30.13%
* CCN(CC)Cc1ccccc1NCc1c(C)noc1C | Mtb heat-shock: -11.37%
* O=C(CCN1CCC(C(=O)c2cc(F)ccc2F)CC1)NC1CCCC1 | Mtb heat-shock: -27.66%; Mtb growth Cornell: -1.595%
* CC(=O)c1ccc(OCC(=O)c2cccn2C)cc1 | Mtb heat-shock: -4.084%; Mtb growth Cornell: 1.973%
* Cc1cc(-c2cc(N)c(=O)n(CC(=O)NC3CCCC3)n2)c(C)o1 | Mtb heat-shock: 6.308%; Mtb growth Cornell: -9.278%
* O=c1[nH]c(NC2CCCC2)nc2nccc(-c3cccs3)c12 | Mtb heat-shock: 15.31%; Mtb growth Cornell: 5.796%
* CC(C)(CNC(=O)C(C)(C)Oc1ccc2c(c1)CCCC2=O)C(N)=O | Mtb heat-shock: -6.384%; Mtb growth Cornell: 20.49%
* Cc1nc(C)n(CC2CN(CCc3ccncc3)CCO2)n1 (stereo not given) | Mtb heat-shock: -12.47%; Mtb growth Cornell: -31.55%
* Cc1nnc2n1CCN(C(=O)c1cc(Cl)c[nH]1)C2 | Mtb heat-shock: 1.899%
* NCCc1n[nH]c(=O)n1-c1cccc(Cl)c1Cl | Mtb heat-shock: 9.732%; Mtb growth Cornell: -33.73%
* O=C(c1ccc(C2CCCN2)s1)N1CCC2(CCCO2)CC1 (stereo not given) | Mtb heat-shock: 0.08504%; Mtb growth Cornell: 5.992%
* Cc1cc(CNC2CCCN(Cc3noc(C4CC4)n3)C2)on1 (stereo not given) | Mtb heat-shock: -19.09%

For reference, 2 entries once more:

Compound	Mtb heat-shock	Mtb growth Cornell
O=C1CC(c2cccc(Cl)c2)c2snc(C(=O)O)c2N1 (stereo not given)	-7.379%	-
NCCc1n[nH]c(=O)n1-c1cccc(Cl)c1Cl	9.732%	-33.73%